Measurements as given in PubChem BioAssay AID248 (DTP/NCI, 2004).
The list shows only some results of the screen, not a fair sample: it gathers tests that were run many times, whatever their T/C, doses with no T/C, and many T/C values between a quarter and a half above the control. Other doses and runs of a compound stand elsewhere. T/C: endpoint of the treated group in % of that of the vehicle group. Some entries give survivors of the animals treated and no T/C: the source files T/C as zero there, which appears to mark a toxic dose or a test without result, not a measured value. Some doses without a T/C left all or most animals alive at the check, yet need not have been tolerated: the source hardly ever lists a survival T/C far under the control, and the zero likely stands for such cases as well. Survivors were counted at the toxicity check, usually on the fifth day, unless a day is given; later deaths do not show. Schedules are NCI's codes, taken here to give the interval after Q, in days (D) or hours (H), and the number of doses after X. Some entries were tested several times; the results are listed from low to high. Some schedule codes hold Z or #, which are not explained here. Some molecules as drawn cover several salts, stereoisomers or complexes of the source; a dose is that of the sample tested. Marks such as (2×) count equal records among those shown. Where survival is the endpoint, this PubChem deposit counts one and a half times the control or more as active, and values a quarter to a half above the control carry no call in these data; other NCI protocols may use other cut-offs. Some T/C values are followed by the survivors on the day toxicity was checked, most often the fifth; without a count, all were alive then.

Tested on: L1210 leukemia ip in BDF1 mice, survival T/C
Assay: NCI In Vivo Anticancer Drug Screen. Data for tumor model L1210 Leukemia (intraperitoneal) in B6D2F1 (BDF1) mice
Details: T/C endpoint: mean survival time, higher T/C = longer survival
[1] = dose: 12.5 mg/kg/injection, schedule: Q01DX009 (ip), vehicle: Klucel (hydroxypropylcellulose) (HPC)
[2] = dose: 25.0 mg/kg/injection, schedule: Q01DX009 (ip), vehicle: Klucel (hydroxypropylcellulose) (HPC)
[3] = dose: 50.0 mg/kg/injection, schedule: Q01DX009 (ip), vehicle: Klucel (hydroxypropylcellulose) (HPC)
[4] = dose: 100.0 mg/kg/injection, schedule: Q04DX003 (ip), vehicle: Klucel (hydroxypropylcellulose) (HPC)
[5] = dose: 200.0 mg/kg/injection, schedule: Q04DX003 (ip), vehicle: Klucel (hydroxypropylcellulose) (HPC)
[6] = dose: 200.0 mg/kg/injection, schedule: Q04DX003 (ip), vehicle: saline
[7] = dose: 400.0 mg/kg/injection, schedule: Q04DX003 (ip), vehicle: Klucel (hydroxypropylcellulose) (HPC)
[8] = dose: 400.0 mg/kg/injection, schedule: Q04DX003 (ip), vehicle: saline
[9] = dose: 150.0 mg/kg/injection, schedule: Q01DX001 (ip), vehicle: saline
[10] = dose: 300.0 mg/kg/injection, schedule: Q01DX001 (ip), vehicle: saline
[11] = dose: 200.0 mg/kg/injection, schedule: Q01DX001 (ip), vehicle: saline
[12] = dose: 400.0 mg/kg/injection, schedule: Q01DX001 (ip), vehicle: saline

## O=C(CCCN1CCC(O)(c2cccc(C(F)(F)F)c2)CC1)c1ccc(F)cc1
dose: 1.56 mg/kg/injection, schedule: Q03HX024 (ip), vehicle: Klucel (hydroxypropylcellulose) (HPC)
  survivor count: 6 of 6
dose: 3.12 mg/kg/injection, schedule: Q03HX004 (ip), vehicle: Klucel (hydroxypropylcellulose) (HPC)
  survivor count: 3 of 6
dose: 6.25 mg/kg/injection, schedule: Q01DX009 (ip), vehicle: Klucel (hydroxypropylcellulose) (HPC)
  T/C: 90 [4 of 6 alive], 107, 110, 112, 116 % of control
dose: 6.25 mg/kg/injection, schedule: Q03HX004 (ip), vehicle: Klucel (hydroxypropylcellulose) (HPC)
  survivor count: 2 of 6
dose: 6.25 mg/kg/injection, schedule: Q03HX024 (ip), vehicle: Klucel (hydroxypropylcellulose) (HPC)
  survivor count: 0 of 6 and 2 of 6
dose: 8.0 mg/kg/injection, schedule: Q01DX009 (ip), vehicle: Klucel (hydroxypropylcellulose) (HPC)
  survivor count: 4 of 6
[1]
  T/C: 100, 105, 110, 116 % of control [5 of 6 alive]
  survivor count: 3 of 6
dose: 12.5 mg/kg/injection, schedule: Q03HX004 (ip), vehicle: Klucel (hydroxypropylcellulose) (HPC)
  survivor count: 5 of 6
dose: 12.5 mg/kg/injection, schedule: Q03HX024 (ip), vehicle: Klucel (hydroxypropylcellulose) (HPC)
  survivor count: 0 of 6 and 1 of 6
dose: 12.5 mg/kg/injection, schedule: Q04DX003 (ip), vehicle: Klucel (hydroxypropylcellulose) (HPC)
  T/C: 94, 105 (2×), 125 % of control
[2]
  T/C: 112 [5 of 6 alive], 114 [5 of 6 alive], 115, 132 % of control
  survivor count: 5 of 6
dose: 25.0 mg/kg/injection, schedule: Q03HX024 (ip), vehicle: Klucel (hydroxypropylcellulose) (HPC)
  survivor count: 0 of 6 (2×)
dose: 25.0 mg/kg/injection, schedule: Q04DX003 (ip), vehicle: Klucel (hydroxypropylcellulose) (HPC)
  T/C: 107 [3 of 4 alive], 108 [5 of 6 alive], 111, 131, 134, 142 % of control
dose: 32.0 mg/kg/injection, schedule: Q01DX009 (ip), vehicle: Klucel (hydroxypropylcellulose) (HPC)
  survivor count: 4 of 6
dose: 50.0 mg/kg/injection, schedule: Q01DX001 (ip), vehicle: Klucel (hydroxypropylcellulose) (HPC)
  T/C: 130 % of control
[3]
  T/C: 106 and 114 % of control
  survivor count: 3 of 6
dose: 50.0 mg/kg/injection, schedule: Q04DX003 (ip), vehicle: Klucel (hydroxypropylcellulose) (HPC)
  T/C: 122, 124, 126, 130 [5 of 6 alive], 137, 145 % of control
dose: 64.0 mg/kg/injection, schedule: Q01DX009 (ip), vehicle: Klucel (hydroxypropylcellulose) (HPC)
  survivor count: 1 of 6
[4]
  T/C: 100 % of control
  survivor count: 0 of 4, 0 of 6 (2×), 2 of 6
dose: 200.0 mg/kg/injection, schedule: Q01DX001 (ip), vehicle: Klucel (hydroxypropylcellulose) (HPC)
  survivor count: 0 of 6
[5]
  survivor count: 0 of 4 and 1 of 4
[6]
  survivor count: 0 of 6
dose: 300.0 mg/kg/injection, schedule: Q01DX001 (ip), vehicle: Klucel (hydroxypropylcellulose) (HPC)
  survivor count: 1 of 6
[7]
  survivor count: 0 of 4 and 1 of 4
[8]
  survivor count: 0 of 6

## COC(=O)C1=CO[C@H](C)[C@@H]2CN3CCc4c([nH]c5ccccc45)[C@@H]3C[C@H]12
dose: 9.0 mg/kg/injection, schedule: Q01DX Z (ip), vehicle: carboxymethylcellulose (CMC)
  survivor count: 6 of 6
dose: 35.0 mg/kg/injection, schedule: Q01DX Z (ip), vehicle: carboxymethylcellulose (CMC)
  survivor count: 6 of 6
dose: 70.0 mg/kg/injection, schedule: Q01DX Z (ip), vehicle: carboxymethylcellulose (CMC)
  survivor count: 6 of 6

## CC(=O)OCc1c[n+]([O-])c(C)c(OC(C)=O)c1COC(C)=O
dose: 25.0 mg/kg/injection, schedule: Q01DX009 (ip), vehicle: saline
  survivor count: 4 of 6
dose: 50.0 mg/kg/injection, schedule: Q01DX009 (ip), vehicle: saline
  survivor count: 0 of 6
dose: 100.0 mg/kg/injection, schedule: Q01DX009 (ip), vehicle: saline
  survivor count: 0 of 6
dose: 100.0 mg/kg/injection, schedule: Q04DX003 (ip), vehicle: saline
  survivor count: 4 of 6 and 5 of 6
[6]
  survivor count: 0 of 6
[8]
  survivor count: 0 of 6

## CSc1ncc(C(N)=O)c(N=C(C)C)n1
[5]
  survivor count: 2 of 6
[7]
  survivor count: 0 of 6

## CC(C)(O)C(C)(O)c1cccc(Cl)c1 (stereo unspecified)
[7]
  survivor count: 2 of 4

## CCN(CC)CCNc1cc(OC)cc2cccnc12
dose: 100.0 mg/kg/injection, schedule: Q04DX002 (ip), vehicle: saline
  survivor count: 0 of 3
dose: 200.0 mg/kg/injection, schedule: Q04DX002 (ip), vehicle: saline
  survivor count: 0 of 3
dose: 400.0 mg/kg/injection, schedule: Q04DX002 (ip), vehicle: saline
  survivor count: 0 of 3

## O=S(=O)(O)c1ccc2c(ccc3ccccc32)c1
[9]
  survivor count: 3 of 6
[10]
  survivor count: 3 of 6

## CCOC(=O)C1C=NC([N+](=O)[O-])=C1Br (stereo unspecified)
dose: 200.0 mg/kg/injection, schedule: Q04DX002 (ip), vehicle: Klucel (hydroxypropylcellulose) (HPC)
  survivor count: 3 of 3

## CC[N+](C)(CC)CCNC(c1ccccc1)C(Cl)(Cl)Cl (stereo unspecified)
[11]
  survivor count: 0 of 4
[12]
  survivor count: 0 of 4

## O=C(N/N=C/c1ccco1)c1ccccc1
dose: 400.0 mg/kg/injection, schedule: Q01DX009 (ip), vehicle: saline with Tween-80
  survivor count: 0 of 3 and 1 of 6

## CCCCCCC(O)C(=O)O (stereo unspecified)
dose: 400.0 mg/kg/injection, schedule: Q04DX002 (ip), vehicle: saline with Tween-80
  survivor count: 0 of 3

## O=C1CCCCC1C(=O)C(F)(F)F (stereo unspecified)
dose: 100.0 mg/kg/injection, schedule: Q04DX003 (ip), vehicle: other
  survivor count: 5 of 6
dose: 200.0 mg/kg/injection, schedule: Q04DX003 (ip), vehicle: other
  survivor count: 0 of 6
dose: 400.0 mg/kg/injection, schedule: Q04DX003 (ip), vehicle: other
  survivor count: 0 of 6

## [N-]=[N+]=CC(=O)CCC(=O)C=[N+]=[N-]
dose: 3.0 mg/kg/injection, schedule: Q01DX009 (ip), vehicle: other
  T/C: 148 % of control [5 of 6 alive]

## N=c1ccn(CC(Cl)COc2ccccc2)cc1 (stereo unspecified)
[11]
  survivor count: 0 of 4
[12]
  survivor count: 0 of 4

## [O]=[Sn]([OH])[OH]
dose: 400.0 mg/kg/injection, schedule: Q01DX009 (ip), vehicle: saline
  survivor count: 5 of 6

## O=C(N/N=C/c1ccc(Cl)c(Cl)c1)c1cccc2ccccc12
[11]
  survivor count: 4 of 4

## CC/C(C)=N/NS(C)(=O)=O
dose: 300.0 mg/kg/injection, schedule: Q01DX001 (ip), vehicle: other
  survivor count: 0 of 6

## CNNC(=O)c1ccccc1
dose: 25.0 mg/kg/injection, schedule: Q04DX002 (ip), vehicle: saline
  T/C: 125 % of control

## CC1=N/C(=N\c2nc3cc(C)c(C)cc3[nH]2)NC(=O)CC1
[9]
  survivor count: 1 of 6
[10]
  survivor count: 0 of 6

## CCCCOP(=O)(O)OCCCC.[Cd]
[3]
  survivor count: 0 of 6
dose: 100.0 mg/kg/injection, schedule: Q01DX009 (ip), vehicle: Klucel (hydroxypropylcellulose) (HPC)
  survivor count: 0 of 6
dose: 200.0 mg/kg/injection, schedule: Q01DX009 (ip), vehicle: Klucel (hydroxypropylcellulose) (HPC)
  survivor count: 0 of 6
dose: 400.0 mg/kg/injection, schedule: Q01DX009 (ip), vehicle: Klucel (hydroxypropylcellulose) (HPC)
  survivor count: 0 of 6

## CN1CCN(CCNC(c2ccccc2)C(O)c2ccccc2)CC1 (stereo unspecified)
[5]
  survivor count: 1 of 6
[7]
  survivor count: 1 of 6

## ClCCCOC1CCCCO1 (stereo unspecified)
[7]
  survivor count: 3 of 3

## Nc1nc(N)c2cc(CCc3ccc(C(=O)NC(CCC(=O)O)C(=O)O)cc3)ccc2n1 (stereo unspecified)
dose: 313.0 micrograms/kg/injection, schedule: Q01DX009 (ip), vehicle: Klucel (hydroxypropylcellulose) (HPC)
  T/C: 128 % of control
